Results on 1 molecule are retold here after paper PMC10763551.

Results are given in words; binding and its absence hold for the method and conditions named.

The target of the assay is Wild-type lmSrtA (Listeria monocytogenes sortase A, residues 71-222) (Listeria monocytogenes) (UniProt Q8Y8H5). The assay can be described thus: SEC; analytical SEC of the purified enzymes; conditions not given; both purified. (In gel filtration, larger molecules generally elute earlier.)

B1: Wild-type lmSrtA (Listeria monocytogenes sortase A, residues 71-222) (enzyme, UniProt Q8Y8H5 71-222)
chain: GAANYDKDAVVGSIAVPSVDVNLLVFKGTNTANLLAGATTMRSDQVMGKGNYPLAGHHMRDESMLFGPIMKVKKGDKIYLTDLENLYEYTVTETKTIDETEVSVIDNTKDARITLITCDKPTETTKRFVAVGELEKTEKLTKELENKYFPSK
Consider B1, for which the binding entry is given as “no binding”.
